{"sequences": {"note": "The chains behind the UniProt entries cited, without tags or fusion partners.", "UniProt Q0JBA9, entry or part of it": "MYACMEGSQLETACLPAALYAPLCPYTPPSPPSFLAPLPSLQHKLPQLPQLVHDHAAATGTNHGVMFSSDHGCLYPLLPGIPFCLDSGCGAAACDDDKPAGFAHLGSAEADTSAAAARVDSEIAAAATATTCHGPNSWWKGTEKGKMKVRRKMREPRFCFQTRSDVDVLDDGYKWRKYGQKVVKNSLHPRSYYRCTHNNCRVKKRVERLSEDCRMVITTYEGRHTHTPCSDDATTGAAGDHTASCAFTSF"}, "source": "paper PMC7819943", "about": "“Rice protein-binding microarrays: a tool to detect cis-acting elements near promoter regions in rice”", "note": "The other results are listed elsewhere or left out."}
{"target": "OsWRKY34 (Oryza sativa, UniProt Q0JBA9 1-250)", "test": "protein-binding microarray (RPBM); PBS, 2% BSA, 51.3 ng/ul salmon testes DNA, 50 uM zinc acetate, 200 nM TF, 25 C, 1 h; high values mean tight binding", "conditions": "protein: recombinant; tags: N-terminal polyhistidine and DsRed monomer fusion (pET32a); label: CyDye5-dUTP incorporated in the synthesized complementary strand; 3' TTTTT single-stranded linker to array surface; dsDNA, one strand shown", "in_short": "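For the binding signal, per-feature fluorescence intensity was read in arbitrary units on an Axon 4000B scanner. Before scanning, a 2% BSA-blocked custom Agilent array made double-stranded with Cy5-dUTP was washed after 1 h at 25 °C with 200 nM protein and 50 µM zinc acetate. The proteins were Ni–NTA-purified transcription factors with N-terminal polyhistidine and DsRed fusions, expressed in E. coli BL21-CodonPlus.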"}
{"sequence": "AATGCTGAGTTTGAATTGCGTCCTTATCCACAATACCAGTCGGAGTCACCTAGTGCAG", "binding signal": "10500 fluorescence intensity (a.u.)"}
{"sequence": "ACTATTTACGTTTCTGGTTACCTAGGGCTTTTGCTACATTCGGAGTCACCTAGTGCAG", "binding signal": "11700 fluorescence intensity (a.u.)"}
{"sequence": "CGACTGCCACACTTTATTGATTTAACCGGTGTAGTTTAAACGGAGTCACCTAGTGCAG", "binding signal": "8060 fluorescence intensity (a.u.)"}
{"sequence": "GGTCACATATCTGATAGTTTTGAGGGGAAAAAAATACTTACGGAGTCACCTAGTGCAG", "binding signal": "9730 fluorescence intensity (a.u.)"}
{"sequence": "TGGAGTTATTCGTTTCTCTGTTGCCAAATGTATTGCTTAACGGAGTCACCTAGTGCAG", "binding signal": "9270 fluorescence intensity (a.u.)"}
{"sequence": "GAGTTATCCAGATTCATTGTACTACGACATGTTACATTTTCGGAGTCACCTAGTGCAG", "binding signal": "8520 fluorescence intensity (a.u.)"}
{"sequence": "GTTGGTTGGCTGTTCCTTGCTTTCATCCAGCTAGCTACTGCGGAGTCACCTAGTGCAG", "binding signal": "10500 fluorescence intensity (a.u.)"}
{"sequence": "AGTAGTATTTTTTTGAGGCAAAGGAACGAAGTAGTATAACCGGAGTCACCTAGTGCAG", "binding signal": "8790 fluorescence intensity (a.u.)"}
{"sequence": "ACGCTCGCCGCCGCTTCCTGTACTGTCTTTACCCAATCCTCGGAGTCACCTAGTGCAG", "binding signal": "9010 fluorescence intensity (a.u.)"}
{"sequence": "CCAGCCGCCGCCAACCGCCACACATGCCTAGCCGCCGCCGCGGAGTCACCTAGTGCAG", "binding signal": "8220 fluorescence intensity (a.u.)"}
{"sequence": "GACGAGACCGACGCCGTCATCCTCCTTCTCACGCTACCATCGGAGTCACCTAGTGCAG", "binding signal": "8040 fluorescence intensity (a.u.)"}
{"sequence": "TGTTTTTCTAATGGTCTCACGAATGGTAATTTCTGTTTTCCGGAGTCACCTAGTGCAG", "binding signal": "9980 fluorescence intensity (a.u.)"}
{"sequence": "TCAAACCGTCCCGCGCCGCCGCGGCCGCTGCAACCCGCGCCGGAGTCACCTAGTGCAG", "binding signal": "8260 fluorescence intensity (a.u.)"}
{"sequence": "TATGATTTGTGTTAGTTGACTTCTAATTTCTTGAGAGATACGGAGTCACCTAGTGCAG", "binding signal": "8610 fluorescence intensity (a.u.)"}
{"sequence": "GTACACACACACTACACACACTACGCTTCTACGCTACACACGGAGTCACCTAGTGCAG", "binding signal": "8280 fluorescence intensity (a.u.)"}
{"sequence": "TAGCTCGTCTACTCCTAGCTCTCTCGTCCAATCCGGCCGGCGGAGTCACCTAGTGCAG", "binding signal": "8680 fluorescence intensity (a.u.)"}
{"sequence": "ATTTTGTTACATCATCATCAACCGATTACCTTTATATCATCGGAGTCACCTAGTGCAG", "binding signal": "9070 fluorescence intensity (a.u.)"}
{"sequence": "TTCATGTATCTGTAATTTGATGATGCTGGATTTCTACTATCGGAGTCACCTAGTGCAG", "binding signal": "8420 fluorescence intensity (a.u.)"}
{"sequence": "ACCCGTACCTGTCCAGCCACGTTTGGCGTAACACCTGAACCGGAGTCACCTAGTGCAG", "binding signal": "10200 fluorescence intensity (a.u.)"}
{"sequence": "GATCTCTTGCCCGTACACCTCGTGCTCCTCCTCGTCCATGCGGAGTCACCTAGTGCAG", "binding signal": "8410 fluorescence intensity (a.u.)"}
{"sequence": "GCAACCAGTACACCACATTAACTTAATTCACACCTAGCTTCGGAGTCACCTAGTGCAG", "binding signal": "8100 fluorescence intensity (a.u.)"}
{"sequence": "TGTGTTTGAGGGGTGTGTATGTGTTGTGTTGTAGGTCAACCGGAGTCACCTAGTGCAG", "binding signal": "9510 fluorescence intensity (a.u.)"}
{"sequence": "TTTTATTCCATAATCTGGTTGGGATAATTGCTTTCTGCTGCGGAGTCACCTAGTGCAG", "binding signal": "8130 fluorescence intensity (a.u.)"}
{"sequence": "AGAAGGGATAAGATAGGGCGGGGAGGACGAGGTGCTGCTGCGGAGTCACCTAGTGCAG", "binding signal": "8150 fluorescence intensity (a.u.)"}
{"sequence": "ATGACTCTGTACTCTATTTCTAATATTTCTTATTTTTTTACGGAGTCACCTAGTGCAG", "binding signal": "11600 fluorescence intensity (a.u.)"}
{"sequence": "CCGTCTCCATCGCGCACTGCCCTGTCCCTCTCTCCTCCTCCGGAGTCACCTAGTGCAG", "binding signal": "11500 fluorescence intensity (a.u.)"}
{"sequence": "CAACCTGCTCCGCTCCTTGCGCTCTCCCAATCCCGCATCTCGGAGTCACCTAGTGCAG", "binding signal": "8890 fluorescence intensity (a.u.)"}
{"sequence": "CAATCACTTATAAAATTTTTTAGCTAAACTGCACATACCTCGGAGTCACCTAGTGCAG", "binding signal": "9220 fluorescence intensity (a.u.)"}
{"sequence": "ACACCATCCCCATCCTACGTCGTCGCCGCCGCCGAAGTCCCGGAGTCACCTAGTGCAG", "binding signal": "10500 fluorescence intensity (a.u.)"}
{"sequence": "CATGCACCGGGACAATCATGCTTTGGCTGTACTACCGCGGCGGAGTCACCTAGTGCAG", "binding signal": "8060 fluorescence intensity (a.u.)"}
{"sequence": "ACATGCTCAATGATAGATCTAATTAAGCTTTTCATTGATTCGGAGTCACCTAGTGCAG", "binding signal": "8210 fluorescence intensity (a.u.)"}
{"sequence": "ATCGCACTCTATGCCTAATCGTTTTACCCTTTTCACCAAACGGAGTCACCTAGTGCAG", "binding signal": "12200 fluorescence intensity (a.u.)"}
{"sequence": "CTTTTGTTTTTCTTTTTTTTACCTTTCCTTTCATCTCTTCCGGAGTCACCTAGTGCAG", "binding signal": "10200 fluorescence intensity (a.u.)"}
{"sequence": "CTCCGTCTGCACGCCGCTCAATCTCCAGGTACATATCGATCGGAGTCACCTAGTGCAG", "binding signal": "8670 fluorescence intensity (a.u.)"}
{"sequence": "GTCTTCCTCCACGCTTCTGCTTGCACTTATCTCTATGTCACGGAGTCACCTAGTGCAG", "binding signal": "8780 fluorescence intensity (a.u.)"}
{"sequence": "GCTAGTGGGTTGCAACTATTCATTCACAAAACGTTCATTGCGGAGTCACCTAGTGCAG", "binding signal": "8290 fluorescence intensity (a.u.)"}
{"sequence": "TGCTCCTTTCCTCCTTGTGCTCTACCTGTGTTCACGGAAACGGAGTCACCTAGTGCAG", "binding signal": "8200 fluorescence intensity (a.u.)"}
{"sequence": "CGGCTCCGGCCGCTAGCAGTTGCTTCTTTTTCCCACATTCCGGAGTCACCTAGTGCAG", "binding signal": "10800 fluorescence intensity (a.u.)"}
{"sequence": "CGGAACCGCTCCTCGAGAAGCTCTCGAATTCCTCGTCGTCCGGAGTCACCTAGTGCAG", "binding signal": "9310 fluorescence intensity (a.u.)"}
{"sequence": "CCGGGCCCCGCCGCTTTGCCACCCAAATCTCCCGCCATTTCGGAGTCACCTAGTGCAG", "binding signal": "9060 fluorescence intensity (a.u.)"}
{"sequence": "GGATTTCCACGTAAAATTCGTGTCTCCGTTGTGCATCTATCGGAGTCACCTAGTGCAG", "binding signal": "8150 fluorescence intensity (a.u.)"}
{"sequence": "AATATTCTTCACTGCCATGGATCAATCATATGATCCTTTGCGGAGTCACCTAGTGCAG", "binding signal": "8260 fluorescence intensity (a.u.)"}
{"sequence": "CTTTCCTTTCTGTCGCGGCCAACTCCTCGCCACCACGCCGCGGAGTCACCTAGTGCAG", "binding signal": "9020 fluorescence intensity (a.u.)"}
{"sequence": "GCGCAAGCCCAGCCGCCTCGTCGTGTTCGCGTTCGTCGCGCGGAGTCACCTAGTGCAG", "binding signal": "8820 fluorescence intensity (a.u.)"}
{"sequence": "AAATAGCCACATTTCTTACGCGTTGCAATTCTATCATCTCCGGAGTCACCTAGTGCAG", "binding signal": "9400 fluorescence intensity (a.u.)"}
{"sequence": "TTGGCAGCACTTTTGCAATTGCAATCTCCATTGTTTTGTCCGGAGTCACCTAGTGCAG", "binding signal": "12700 fluorescence intensity (a.u.)"}
{"sequence": "ATTGTTTAAGTTTATTATTAGCCTAGCGGGAGGGGTGTTTCGGAGTCACCTAGTGCAG", "binding signal": "9560 fluorescence intensity (a.u.)"}
{"sequence": "GATCTTGAGAAAGGGGCCGGCGGGGTGGGTGTGGAAGACTCGGAGTCACCTAGTGCAG", "binding signal": "11700 fluorescence intensity (a.u.)"}
{"sequence": "CCCACCGTTTCTCTCCCTTGCCGGCTACTGGCCATGGCTTCGGAGTCACCTAGTGCAG", "binding signal": "9060 fluorescence intensity (a.u.)"}
{"sequence": "GAATTTGCACGGTCTCGATCTTGTGTTGCTACTCCACTCCCGGAGTCACCTAGTGCAG", "binding signal": "14700 fluorescence intensity (a.u.)"}
{"sequence": "TATATTTATTTGACCGTAACGTCTTCCCCATAGCAGAGTGCGGAGTCACCTAGTGCAG", "binding signal": "8130 fluorescence intensity (a.u.)"}
{"sequence": "TTTTATACTTCCATAGATGTTATGTGTGTTCGATGCTCACCGGAGTCACCTAGTGCAG", "binding signal": "8030 fluorescence intensity (a.u.)"}
{"sequence": "ATGCATCATCATCATCATCATCATCCTCCTCTTTGACCCGCGGAGTCACCTAGTGCAG", "binding signal": "8320 fluorescence intensity (a.u.)"}
{"sequence": "CGCGCGCGCGCCCACACACACACTCACATTCTCTCTGCACCGGAGTCACCTAGTGCAG", "binding signal": "9450 fluorescence intensity (a.u.)"}
